Source: patent publication US20230348540A1, “Viral multimeric peptide constructs for targeting PDZ domains” (University of Copenhagen, priority 2020, published 2023)
These are yes or no findings as the source states them, for the method shown. For part of these data: Binding seen in cells or lysates may run through a third protein. Some results given as binding are weak or reduced against the parent protein; the word gives no strength.

Chains of the proteins cited; added tags and fusions are not shown. Residues count along the entry.
UniProt P78352, residues 61-249: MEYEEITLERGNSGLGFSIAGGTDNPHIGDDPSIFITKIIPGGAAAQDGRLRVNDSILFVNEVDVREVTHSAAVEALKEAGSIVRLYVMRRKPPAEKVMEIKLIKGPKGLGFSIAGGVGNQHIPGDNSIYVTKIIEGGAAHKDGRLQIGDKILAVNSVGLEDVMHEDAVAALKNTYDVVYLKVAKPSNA
UniProt Q9Z0J4: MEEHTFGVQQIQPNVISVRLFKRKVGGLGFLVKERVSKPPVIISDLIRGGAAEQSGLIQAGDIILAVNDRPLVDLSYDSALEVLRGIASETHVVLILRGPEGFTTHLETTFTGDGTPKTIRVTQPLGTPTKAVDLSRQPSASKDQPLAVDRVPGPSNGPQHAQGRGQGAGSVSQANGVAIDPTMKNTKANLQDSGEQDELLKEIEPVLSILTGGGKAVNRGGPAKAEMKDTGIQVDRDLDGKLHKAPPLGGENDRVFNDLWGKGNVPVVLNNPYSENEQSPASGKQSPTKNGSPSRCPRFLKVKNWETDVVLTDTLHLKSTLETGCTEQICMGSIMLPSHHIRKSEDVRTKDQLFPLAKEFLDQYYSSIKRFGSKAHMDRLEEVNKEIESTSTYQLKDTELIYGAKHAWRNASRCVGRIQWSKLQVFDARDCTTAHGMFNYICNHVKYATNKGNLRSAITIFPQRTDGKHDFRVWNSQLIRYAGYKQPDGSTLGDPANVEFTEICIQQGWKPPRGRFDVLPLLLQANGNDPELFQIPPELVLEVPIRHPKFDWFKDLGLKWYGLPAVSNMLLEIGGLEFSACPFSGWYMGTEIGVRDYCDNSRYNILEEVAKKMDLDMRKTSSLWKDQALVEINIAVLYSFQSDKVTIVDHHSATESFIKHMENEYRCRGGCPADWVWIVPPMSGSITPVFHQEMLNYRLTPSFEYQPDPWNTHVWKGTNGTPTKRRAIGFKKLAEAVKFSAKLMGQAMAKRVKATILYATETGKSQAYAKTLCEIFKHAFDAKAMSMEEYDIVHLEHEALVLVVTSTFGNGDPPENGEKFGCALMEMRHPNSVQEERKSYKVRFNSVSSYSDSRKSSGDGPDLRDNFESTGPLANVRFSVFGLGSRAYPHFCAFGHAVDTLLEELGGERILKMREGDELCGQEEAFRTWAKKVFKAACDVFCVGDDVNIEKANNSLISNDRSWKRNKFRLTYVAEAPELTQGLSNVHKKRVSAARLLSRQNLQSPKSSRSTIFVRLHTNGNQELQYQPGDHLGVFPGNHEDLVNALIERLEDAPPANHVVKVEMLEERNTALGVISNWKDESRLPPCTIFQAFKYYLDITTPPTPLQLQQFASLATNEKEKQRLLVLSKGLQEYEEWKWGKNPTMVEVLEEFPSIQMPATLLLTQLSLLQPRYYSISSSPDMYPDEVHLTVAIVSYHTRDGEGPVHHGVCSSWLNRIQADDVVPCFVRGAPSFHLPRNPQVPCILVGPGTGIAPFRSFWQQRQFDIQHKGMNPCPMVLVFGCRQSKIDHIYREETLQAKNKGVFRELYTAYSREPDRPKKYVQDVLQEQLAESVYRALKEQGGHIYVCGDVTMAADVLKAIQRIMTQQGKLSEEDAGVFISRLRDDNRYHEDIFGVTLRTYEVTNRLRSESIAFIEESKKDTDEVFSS
UniProt Q62108: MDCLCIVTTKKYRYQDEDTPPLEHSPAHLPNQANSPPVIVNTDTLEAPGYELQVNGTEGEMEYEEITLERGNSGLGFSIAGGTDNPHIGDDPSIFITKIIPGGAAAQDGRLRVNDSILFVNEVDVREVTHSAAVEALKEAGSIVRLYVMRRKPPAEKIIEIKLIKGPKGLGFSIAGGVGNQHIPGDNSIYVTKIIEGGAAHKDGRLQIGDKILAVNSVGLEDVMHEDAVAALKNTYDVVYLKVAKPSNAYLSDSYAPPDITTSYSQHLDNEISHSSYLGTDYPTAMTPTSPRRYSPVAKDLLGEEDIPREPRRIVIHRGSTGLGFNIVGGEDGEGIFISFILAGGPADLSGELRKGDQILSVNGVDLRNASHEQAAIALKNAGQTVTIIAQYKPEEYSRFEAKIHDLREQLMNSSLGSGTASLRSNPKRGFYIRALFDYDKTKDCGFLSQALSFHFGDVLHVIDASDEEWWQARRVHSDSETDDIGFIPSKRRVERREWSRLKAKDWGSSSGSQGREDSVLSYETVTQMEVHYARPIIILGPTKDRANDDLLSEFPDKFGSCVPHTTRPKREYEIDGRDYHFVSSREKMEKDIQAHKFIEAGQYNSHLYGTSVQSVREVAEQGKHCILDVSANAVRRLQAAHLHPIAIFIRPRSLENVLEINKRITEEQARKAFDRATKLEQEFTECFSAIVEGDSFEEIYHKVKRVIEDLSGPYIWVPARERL
UniProt Q62083: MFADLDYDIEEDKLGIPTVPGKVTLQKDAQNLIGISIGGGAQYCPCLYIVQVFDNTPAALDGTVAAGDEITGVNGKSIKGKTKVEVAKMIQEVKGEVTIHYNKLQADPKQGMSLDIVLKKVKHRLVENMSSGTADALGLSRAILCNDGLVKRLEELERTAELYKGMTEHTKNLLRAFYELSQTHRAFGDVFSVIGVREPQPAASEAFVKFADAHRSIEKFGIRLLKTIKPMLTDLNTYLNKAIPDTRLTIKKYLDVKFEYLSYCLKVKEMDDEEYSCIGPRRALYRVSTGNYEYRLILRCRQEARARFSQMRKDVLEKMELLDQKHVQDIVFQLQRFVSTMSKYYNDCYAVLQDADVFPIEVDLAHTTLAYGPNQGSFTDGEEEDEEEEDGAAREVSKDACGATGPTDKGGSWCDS

Legend:
PSD-95 PDZ1-2 = PSD-95 PDZ1-2 (UniProt P78352); experiment: FP competition
[1] = target: nNOS protein in mouse spinal cord lysate (mouse) (UniProt Q9Z0J4); experiment: pull-down with biotinylated peptide on streptavidin beads from mouse spinal cord lysate, western blot
[2] = target: nNOS protein in mouse spinal cord lysate (mouse) (UniProt Q9Z0J4); experiment: streptavidin bead pull-down from mouse spinal cord lysate, Western blot
[3] = target: PSD-95 protein in mouse spinal cord lysate (mouse) (UniProt Q62108); experiment: pull-down with biotinylated peptide on streptavidin beads from mouse spinal cord lysate, western blot
[4] = target: PSD-95 protein in mouse spinal cord lysate (mouse) (UniProt Q62108); experiment: streptavidin bead pull-down from mouse spinal cord lysate, Western blot
[5] = target: PICK1 protein in mouse spinal cord lysate (mouse) (UniProt Q62083); experiment: as above

Binder	binding (PSD-95 PDZ1-2)	binding [1]	binding [2]	further results
GEIAKSLKEIAKSLKEIAWSLKEIAKSLKGGGGSIETDV (N-terminal biotin joined through 6-aminohexanoic acid (Ahx)) [CC-Hex2-GS4-IETDV]	binds	–	–	binding [3]: binds; binding [4]: binds
GEIAKSLKEIAKSLKEIAWSLKEIAKSLKGGGGSHWLKV (N-terminal biotin joined through 6-aminohexanoic acid (Ahx)) [CC-Hex2-GS4-HWLKV]	–	–	–	binding [5]: binds

Continued, in another order:

binding (PSD-95 PDZ1-2)	binding [1]	binding [2]	Binder	further results
binds	–	–	GEIAKSLKEIAKSLKEIAWSLKEIAKSLKGGGGSRRTTPV (N-terminal biotin joined through 6-aminohexanoic acid (Ahx)) [CC-Hex2-GS4-RRTTPV]	–
–	binds	binds	RMKQIEDKLEEILSKLYHIENELARIKKLLGGGGSWGESV (N-terminal biotin joined through 6-aminohexanoic acid (Ahx)) [GCN4p1(ILI)-GS4-WGESV]	–
–	binds	binds	GEIAKSLKEIAKSLKEIAWSLKEIAKSLKGGGGSWGESV (N-terminal biotin joined through 6-aminohexanoic acid (Ahx)) [CC-Hex2-GS4-WGESV]	–
